Test results: PubChem BioAssay AID1347423 (Functional Genomics Laboratory (NCATS/FGL), 2020)
The campaign covered roughly 52,000 sequences. About 210 (0.4%) were called active.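 Rule for the calls: active = gene whose silencing raises cell survival under the drug, median off-target-corrected z-score across its silencing RNAs 2 or more; inactive = the rest.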 Some of the results follow.

test: Resistance to Poly (ADP-Ribose) Polymerase inhibitor: Gene Identification via Genome-wide siRNA Screen; settings: mouse BRCA2 R2336H ES cells, olaparib, CellTiter-Glo viability; hits give high values
In short: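 Genome-wide siRNA screen (3 siRNAs/gene, 20 nM) in mouse ES cells carrying hypomorphic BRCA2 R2336H; olaparib 500 nM added 48 h post-transfection, CellTiter-Glo viability 72 h later. Normalized to plate-median negative control; MAD z-scores, gene median, seed-adjusted.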

| Sequence | z-score |
| --- | --- |
| CCCUCUGAAAAUGACCACUTT against 5430420C16Rik | inactive: 0.931 |
| GGUAUUGAAAAGGUGAAGUTT against Lpp | inactive: 0.172 |
| GGGACUUGAAGAUAAUCAATT against Dnajc10 | inactive: -0.383 |
| GCGGAUGCAAAUCGAUGAATT against BC062951 | inactive: 1.12 |
| CCUCUCCUUACAACUGAUGTT against Zfp286 | inactive: -0.203 |
| GGAGAAAGGAAAACUCUUUTT against Pcdhga8 | inactive: -1.19 |
| GCCUGUCUGCCACUUACAATT against Siat8c | inactive: 0.0785 |
| GGAAAAGGGUCGUGCCUGUTT against LOC433332 | inactive: 0.298 |
| CCCGGUUGAGAAGAUAGACTT against Sod3 | inactive: 0.529 |
| CCUCCAGGCUAUUUAUAGUTT against Unc119 | inactive: 0.923 |
| GGAUGUGGAAGCAGUUUGUTT against Zfp101 | inactive: -1.78 |
| CCUAAAUCUCACCUCCACATT against Gp9 | inactive: 0.412 |
| GGGAAUGUGUUCUUUAUCATT against Commd9 | inactive: -0.123 |
| GGCAUCUUAAAAUUGACUGTT against Olfr701 | inactive: 0.126 |
| CGCAACCAUCAUCGUGCUCTT against Olfr282 | inactive: -1.49 |
| GCUAACUGAUACUCCACCATT against 2810006K23Rik | inactive: -2.24 |
| GGCACUUGCUUUGGAUAAATT against Serpinb6a | inactive: -1.85 |
| GGAUUUCUCGGAAGUCGAGTT against Cd3e | inactive: -1.24 |
| GGAAGAAGUCAAACCAUAUTT against Ccl25 | inactive: 1.32 |
| CCUCCAGGAUUAUCGUGAUTT against Dnajc6 | inactive: -0.338 |
| GCAAAACGUAGCAGAAUUGTT against Magee1 | inactive: 0.824 |
| GGCAAGAGGAAAAAGCGGATT against 4921503C21Rik | inactive: -1.49 |
| CCUGAACCACUUGUUAAAUTT against Rnf10 | inactive: 0.959 |
| UCUUACACUUCGUGUUCCATT against Gpr6 | inactive: -0.002 |
| GGAUUUGUGAAGUUUUUUGTT against Psmd5 | inactive: 0.532 |
| CCUGAAUUACAGGGACCAGTT against Znrd1 | inactive: 1.74 |

A portion from the list above, for reference:

| Sequence | z-score |
| --- | --- |
| CCCUCUGAAAAUGACCACUTT against 5430420C16Rik | inactive: 0.931 |
| GGUAUUGAAAAGGUGAAGUTT against Lpp | inactive: 0.172 |
| GGGACUUGAAGAUAAUCAATT against Dnajc10 | inactive: -0.383 |

More entries

| Sequence | z-score |
| --- | --- |
| CGUGAUAGUAGUGAAGUGATT against Usp22 | inactive: -1.32 |
| GCCUAUCCCGAUGUUGUUGTT against Ap3m1 | inactive: 0.464 |
| GACUCUUGUCCCAAGUGUUTT against Cno | inactive: -0.118 |
| CCGACUAAUGCCAUCUUCATT against Pcbp2 | inactive: -1.16 |
| GGAAGAUCGAGAAUGUUCCTT against Ppih | inactive: 0.544 |
| GGCAGAAUAUGAGUUUGAUTT against Camk1d | inactive: 1.28 |
| GAUGCAGCCGUAGGAAUGGTT against Defcr-rs10 | inactive: -0.855 |
| GGAAUUUGACCUUACUACUTT against AA960436 | inactive: -0.0817 |
| CCUCAUAACAACGACUCCUTT against Blr1 | inactive: -0.86 |
| GGCACUUUUUGUUUUCAUGTT against Nckap1 | inactive: -0.724 |
| CCUGAUUGUCACUCCUUUUTT against Pde4b | inactive: -0.239 |
| CGUUUGCUUUUCAUCGUGGTT against Olfr154 | inactive: 1.56 |
| GCAGGCUACCUCUAAUCCATT against Slc23a3 | inactive: -0.866 |
| GGAGGAGAUAAAAUUUAACTT against Cdv1 | inactive: 0.488 |
| GGCGGACAGUUCUUUGCAATT against A630029G22Rik | inactive: -0.194 |
| GGUUUUAUUAACUCUGUGATT against Olfr1013 | inactive: -0.0811 |
| UAUGCUGGCAGGGACACCUTT against Scarf1 | inactive: -0.366 |
| GCAUAGAUUCUCGAGUUUATT against Sugt1 | inactive: 0.676 |
| GGAGGUCCAAGUAGCUCUUTT against Olfr5 | inactive: -0.488 |
| GGAAAUUUCAGUCGUAGUATT against 9130411I17Rik | inactive: 0.0964 |
| GGUCUUCAAGGCACAUAAGTT against Btbd4 | inactive: -0.643 |
| GCUGACUUCGGAGAUUAUATT against Ptpn14 | inactive: -0.14 |
| CCUCUGUUUGCACUUAUUATT against Gabrr1 | inactive: -0.402 |
| GGUUAUCGCCCAAUGACGGTT against Dmrt2 | inactive: 0.179 |
| GGUAUUUCCACUGUCCAGCTT against 2900075G08Rik | inactive: 0.824 |
| GGACAAUUUAACCAUCGUGTT against Tm4sf9 | inactive: 0.348 |

| Sequence | z-score |
| --- | --- |
| GCUAAUCCCAUCUCGUCCUTT against 3110009E18Rik | inactive: 0.972 |
| GGUGUCCUCCUUUCAGUUUTT against Tas2r114 | inactive: -1.05 |
| GGCAAAGCUAAAGGCCAAATT against Ensa | inactive: -0.494 |
| GGAAAAUGAUGGAGAGGAATT against 2610022K04Rik | inactive: 0.374 |
| GCGAGUACUUUCCGCUGUUTT against Ltc4s | inactive: 0.215 |
| GGAAUUUGUCCAGAGUCACTT against Treh | inactive: 0.581 |
| CCAGACCACUUCCCAUUCUTT against Aqr | inactive: -2.15 |
| GGCCUAGCAAUUCUUGAGCTT against C630025C03 | inactive: -0.00738 |
| CGAUUUAGUGGAACAAAUGTT against Nln | inactive: -0.624 |
| GGAACGACCAAAAGUGACGTT against Emcn | inactive: -1.06 |
| GGUCCAAAGAAAGACCCAUTT against 1700009B20Rik | inactive: -0.191 |
| CCCAUCUGAUUGUGCACAUTT against 2310061F22Rik | inactive: -0.485 |
| GGUGACAAACCGAUACUUGTT against Cope | inactive: -0.601 |
| GCUAUGACUUCAACGACUATT against Pcsk4 | inactive: 1.22 |
| GGAAGAAUGGGCUUUCUAGTT against Pask | inactive: 0.69 |
| GGCUUGUCAGAAUUCUUCUTT against 4921528I01Rik | inactive: 1.27 |
| GCUUUAAUGUUGACCUAGUTT against Lgals8 | inactive: -0.889 |
| CCUUUUGAUGUUGUGACUUTT against B230205M03 | inactive: -1.47 |
| GAGACUCUAUUUGAGGAUUTT against Kb14 | inactive: 0.851 |
| CCUCAAGGCUCAUAAAACATT against Zfp598 | inactive: 1.02 |
| GCACAAAAAAGUGAUAUUGTT against Hdlbp | inactive: -0.853 |
| CUCUGGUUCCUAUUAGUAGTT against V1rd21 | inactive: -1.31 |
| GCAACUGGACAUUUAACAATT against Epgn | inactive: 0.218 |
| GCUCUAUAGGCGAGCAUAGTT against BC049711 | inactive: -0.275 |
| GCAAGCUCAAAGCUUACGATT against Kcnv2 | inactive: 1.19 |
| GGUCCUGUGCUCUACUUUGTT against Gng10 | inactive: -1.52 |

| Sequence | z-score |
| --- | --- |
| GGAAAUCGGCAAUCUGAAGTT against Lrrc1 | inactive: -0.495 |
| CGAUCUACAUCGAAUAAAUTT against 2610304F09Rik | inactive: -1.08 |
| GGACACUGGGCUUAGCACUTT against Krt1-1 | inactive: 1.76 |
| GGAAGAAUUGGGUGUAGUGTT against L1cam | inactive: 1.45 |
| GGGAUUAGAGACUGUCAUUTT against Nudt9 | inactive: -0.936 |
| GCCCAACUAAGCAAUAAUATT against AU021034 | inactive: 0.416 |
| GCCCUUCAGUAUUGACCUGTT against 3010001K23Rik | inactive: -0.261 |
| GGAAGAGGCUAUUGCAUCGTT against Atrnl | inactive: 0.238 |
| CCUUAGACCCAAUAACUUUTT against Nrxn1 | inactive: 1.36 |
| GGACGAUGAGAGCAAUGACTT against Klk11 | inactive: -1.22 |
| GGCUCUCUUCGGGAAUACUTT against 2510006D16Rik | inactive: 0.0164 |
| GGGAAUGCAAUGGUUUGUGTT against Ocm | inactive: -0.113 |
| CCUUAUCUUAAUGAUCUCCTT against Mc5r | inactive: -0.343 |
| GGCUUAAGUCUACCGAACUTT against 2810432D09Rik | inactive: -0.361 |
| GGUGUUUUCUGUGUAACCATT against Tlx1 | inactive: -1.52 |
| GCUUGUUCGGUCCUUUGAUTT against Fbxw9 | inactive: -2.98 |
| GCUGCCAUUUAUCAACCUUTT against 2210008M09Rik | inactive: -0.37 |
| GCAGUAUCUAUGCUCUUGATT against Hand1 | inactive: 0.129 |
| GCUCUGAUGUCAACCUUCCTT against 1600002K03Rik | inactive: 0.695 |
| GCCAAGCUUAAGAACUUAATT against Oas3 | inactive: -0.555 |
| UGUUACAACUCUUUGUGGUTT against Olfr1193 | inactive: -1.4 |
| GGAUGUGAGUGAGACUGUCTT against Mtm1 | inactive: 1.12 |
| GAACUGGACAACUUUCUCCTT against Olfr1355 | inactive: 0.0482 |
| GACGCAGAUGGUAUUUUUUTT against Orm2 | inactive: -0.266 |
| GGUAGACUUCGACAUCAAGTT against Hs6st2 | inactive: 1.64 |
| GGGAUUUUAUCAUACAAACTT against Ppil4 | inactive: -0.499 |
